Data: paper PMC5532214, “Natural variations in the biofilm-associated protein BslA from the genus Bacillus” (Scientific Reports, 2017)
Results are given in words; binding and its absence hold for the method and conditions named.

Molecular target: YweA(31-155) (B. subtilis) (UniProt P39632)
Assay: SEC; purified, untagged mature regions of the proteins analysed by size exclusion chromatography; SDS-PAGE with and without β-mercaptoethanol was run alongside; both purified

binding: no binding
B1: YweA(31-155) (domain or fragment, UniProt P39632 31-154)
chain: QSASIEAKTVNSTKEWTISDIEVTYKPNAVLSLGAVEFQFPDGFHATTRDSVNGRTLKETQILNDGKTVRLPLTLDLLGASEFDLVMVRKTLPRAGTYTIKGDVVNGLGIGSFYAETQLVIDPR
